From paper PMC10163288
The other results are listed elsewhere or left out.

B1: il10ra_site1_sap_15_mot_HHH_b1_01347_af2_000000067_0001_42_56_H_._HHH_b1_02043_0001_0000100009_0000001_0_0001 (protein)
chain: SSSSSEMEEYAEIAARFAENAAKSGNPKLARRILERAEEALRHANDEEALELIEELLEELSSSSS
B2: il10ra_site1_sap_15_mot_HHH_b1_07380_000000129_0001_1_20_H_._HHH_b2_04671_0001_0000100002_0000001_0_0001 (protein)
chain: SSSSSDNEEVYRLSKEAAELMADGDEEEAKRVLEEAEELAEELGSRILLKILRFLLRSLNSSSSS
B3: il10ra_site1_normal_mot_HHH_b1_00682_000000211_0001_1_20_H_._HHH_b2_03488_0001_0000200013_0000001_0_af2pred_dldesign_0_af2pred (protein)
chain: SSSSSSPEVRKEVEDLLERAKKEEDPDKRLALLRRAVELAGEAEDPELQARVREVARELISSSSS
B4: il10ra_site1_normal_mot_HHH_b1_06994_000000193_0001_40_55_H_._HHH_b2_02446_0001_0000300038_0000001_0 (protein)
chain: SSSSDLEELVEAALRFAEQAYRHGDPRAVRRRLEALLQLLKADNDEELLEEVEEFLRELESSSSS
B5: il10ra_site1_sap_20_mot_HHH_b2_07579_000000275_0001_1_19_H_._HHH_b2_07036_0001_0000200009_0000001_0_0001 (protein)
chain: SSSSSDAQEEALRLVLKALRLLLRGNPEEARELLEEAEELAREAGDERLLEMIENLLKTNSSSSS
B6: il10ra_site1_sap_16_mot_HHH_b1_00665_000000097_0001_23_39_H_._HHH_b1_03692_0001_0000100017_0000001_0_0001_af2pred_0001 (protein)
chain: SSSSTEEFKRVEELAREALELYKEGDREKAREILEEAEEIAEELGDIVLLWLVRSLLERLKSSSS
B7: il10ra_site1_sap_14_mot_HHH_b2_01379_000000044_0001_42_56_H_._HHH_b2_05904_0001_0000200016_0000001_0_0001 (protein)
chain: SSSSDERREVYELSRRAAEAHSEGNPEEARELLEEAEELAEKVNNRNMLAVLEAMKRLINSSSSS
B8: il10ra_site1_normal_mot_HHH_b1_05357_000000034_0001_23_39_H_._HHH_b2_00694_0002_0000100006_0000001_0_af2pred_0001 (protein)
chain: SSSSSSSEEEVEELLEEAKRIEDRHEVSYLLIRAYAIAYRLGDPELRRLVKEVAQELSSSSSSSS
B9: il10ra_site1_sap_22_mot_690a356816548de866c59e88e666ab0a_0001_1_af2_000000025_0001_1_13_H_._HHH_b1_01796_af2_0001_0000400019_0000001_0_0001_af2pred_0001 (protein)
chain: SSSSDIAEADARQAFKLLEIAHEQNDEELLERALELLEYLARLSNDPEAERLLEEAEKLVGSSSS
B10: il10ra_site1_sap_23_mot_HHH_eva_0509_000000209_0001_39_55_H_._HHH_b1_07761_af2_0001_0000100004_0000001_0_0001_af2pred_0001 (protein)
chain: SSSSSDAKEIAVELLHLLREGNEEEAERVVEEAREELEEKGDPQAVQLLELAFKLLQLAYSSSSS
B11: il10ra_site1_sap_25_mot_65b8060e20531850bca9f2e11f97d954_0001_af2_000000137_0001_17_31_H_._HHH_b1_08498_0001_0000200024_0000001_0_0001 (protein)
chain: SSSSSEEERVLELILEAFRLALRGDPEEAEKLLEEAEKLAEELGDERAARMVRDMLEAQKSSSSS
B12: il10ra_site1_sap_23_mot_HHH_b1_02232_000000288_0001_23_39_H_._HHH_b2_06480_0001_0000100002_0000002_0_0001 (protein)
chain: SSSSDEEQQRLIELILEAARAMIRGDDEQARELLEEAIELAEELGDEEALKQLERFLKSLSSSSS
B13: il10ra_site1_normal_mot_HHH_b2_02337_000000026_0001_38_52_H_._HHH_b1_01793_0001_0000300028_0000002_0 (protein)
chain: SSSSSREEVEELLEELEELLREGDQERFSELAQRIARLAIRVNDPELLQALWELVQEFARKSSSS
B14: il10ra_site1_sap_22_mot_22aa8d8ad8dce7f663ea8fa348a52261_0001_000000025_0001_37_51_H_._d98b4791b6225abad9199bf72535a804_0001_0001_0000400016_0000001_0_0001 (protein)
chain: SSSDKEEAEELYEEAEELLERGDPEEALRVLWRAIHLAVESGDRELLERLYELLHKILREGSSSS
B15: il10ra_site1_sap_16_mot_HHH_b2_02386_000000054_0001_1_20_H_._HHH_b1_00572_0001_0000200014_0000001_0_0001 (protein)
chain: SSSSDEEEEELRELLRRVEELLERGDPERALKVTQKLLRLIYQLSDEEALRELWRLLKKYGSSSS
B16: il10ra_site1_normal_mot_HHH_b1_06789_af2_000000041_0001_1_20_H_._HHH_b2_03706_af2_0001_0000400012_0000001_0_af2pred_0001 (protein)
chain: SSSSDAEFLVRAALKAAERAAKNGDPEKAERALEIARLLAELNNDEELEELVREVEERLGSSSSS
B17: il10ra_site1_normal_mot_HHH_b1_05357_000000034_0001_23_39_H_._ems_p1-16H-GBL-16H-GABBL-15H_0194_0001_0001_0001_0001_0000300024_0000001_0_af2pred_0001 (protein)
chain: SSSSSSEVSYLAIRVLALARQKGDEEVVRLAREILRRYLEGKMSREEAEEELKKLEEEAKSSSSS
B18: il10ra_site1_normal_mot_HHH_b1_02397_af2_000000085_0001_39_57_H_._HHH_b2_06307_af2_0001_0000600004_0000001_1 (protein)
chain: SSSSDKEERIEELLEEAKELYENGNPEEAARVAAEALRLIFELGNEELMRELWEIVKRLGSSSSS
B19: il10ra_site1_sap_18_mot_HHH_b2_00943_af2_000000149_0001_1_17_H_._HHH_b2_08055_0001_0000100005_0000001_0_0001_af2pred_0001 (protein)
chain: SSSSSSDVEELIEEAKELLEKGDPEAKEVLMEALLLAARLGDDEAAHEILKLLAESTTSSSSSSS
B20: il10ra_site1_normal_mot_HHH_b2_00345_af2_000000013_0001_42_56_H_._HHH_b2_01857_0001_0000200015_0000002_0 (protein)
chain: SSSSSDEEEEEVEELLEEAKHIEDEEKRLEILLEATRLALEAQDPELLQLVWEVFHRLIRSSSSS
B21: il10ra_site1_normal_mot_HHH_b2_01705_af2_000000069_0001_44_57_H_._1120a227123fe120892103896c8fe6e4_0001_1_0001_0000600024_0000001_0_af2pred_0001 (protein)
chain: DEKEVLEEAAELVKEGNPREAARLLIELLLKSGDPRLVELLRRVAELLSRGNLEEVHELLRELAR
B22: il10ra_site1_normal_mot_HHH_b1_00999_000000080_0001_41_55_H_._HHH_b2_04871_af2_0001_0000500014_0000002_0 (protein)
chain: SSSSDEEVEEEVKRLLEEAEKTPDPEERLELLLEALRIAYENQDAELLQEIWEVIRKLGGSSSSS
B23: il10ra_site1_sap_20_mot_HHH_b1_07097_af2_000000269_0001_1_16_H_._HHH_b1_06196_0001_0000100004_0000001_0_0001 (protein)
chain: SSTEELLRQLIETVERLIREGTITESAKFHVRQAIKAAKLLGDEEVEKRLRELEERIEEVESSSS
B24: il10ra_site1_normal_mot_HHH_b1_02809_af2_000000277_0001_40_57_H_._HHH_b2_07759_af2_0001_0000100002_0000001_0 (protein)
chain: SSSSSSREEKLIELALKFARALEDEEAARALARAALEIARKLGDEELFEKVQEFLEELNSSSSSS
B25: il10ra_site1_normal_mot_HHH_b2_08144_af2_000000046_0001_38_52_H_._HHH_b1_01389_af2_0001_0000500024_0000001_0_af2pred_0001 (protein)
chain: SSSSDEVEEAVRLLREALKLYAEGNPEEAKKVVEEAKEVAEEGNNPLLKFLIESLERRINRSSSS
B26: il10ra_site1_sap_21_mot_a4073ed34bad1529e7d46a7d39fa26d0_0001_af2_000000058_0001_1_11_H_._HHH_b2_03967_0001_0000100005_0000001_0_0001_af2pred_0001 (protein)
chain: SSSSTHEVSQLIARALRLIQNGNPEEAEEVIQEAERLAEEIGDPKLKIAVRFVKFILEQAESSSS
B27: il10ra_site1_normal_mot_HHH_b1_01821_000000158_0001_23_39_H_._HHH_b1_01089_0001_0000500027_0000001_0 (protein)
chain: SSSSSSDLEEEIEELLEELKQITDPREFSRVAQEAIRLIFELGDEELLQELWEIFKKFSSSSSSS
B28: il10ra_site1_normal_mot_HHH_b1_01879_000000050_0001_1_18_H_._HHH_b1_03974_0002_0000600017_0000001_0 (protein)
chain: SSSSSEEVEELLIILAELSARDPEYQELLFQAMIEAWILLERGNPEEAERIAEEAIEEVRESSSS
B29: il10ra_site1_normal_mot_HHH_b2_07569_000000265_0001_38_56_H_._HHH_b1_04343_af2_0001_0000300017_0000001_0 (protein)
chain: SSSDDEVARRAARVAAEAIRFAFRNNDKETVQELWELAYRIFREGDPELLEELERLLEELRSSSS
B30: il10ra_site1_sap_24_mot_HHH_b1_02809_af2_000000277_0001_40_57_H_._HHH_b1_04113_af2_0001_0000200009_0000001_0_0001 (protein)
chain: SSSSDAEEEVRRLLEEVRELLEEGDAEKAFRALKRAVEIAAKARDPEAEKLVHELLHEFFQSSSS
B31: il10ra_site1_normal_mot_HHH_b1_07968_af2_000000259_0001_43_56_H_._16d56542c9725820401ab7c11c235cbe_0001_af2_0001_0000500017_0000001_0_af2pred_0001 (protein)
chain: NEIIERSLRYVLKLGDEEAAKAAVKRLLELRGVPPEEIEEILKEFEELLKKDPEEAVEFVVRLLE
B32: il10ra_site1_normal_mot_8756ee2cf497b5429c717dfc0c0bcfd6_0001_000000186_0001_1_13_H_._HHH_b1_06492_0001_0000400026_0000001_0 (protein)
chain: SSSSTSQEIQELLRRASELELEGDDEEAEKLLREAEELAKEANNDVLLFQVEYLLELVEESSSSS
B33: il10ra_site1_normal_mot_HHH_b2_06979_000000158_0001_42_57_H_._HHH_b2_04598_0001_0000200021_0000001_0 (protein)
chain: SSSSDQAEIIYRLARELAELLANGNEEEARELAEEAREILEELGDRLALHNVEFLLRDINSSSSS
B34: il10ra_site1_sap_23_mot_HHH_b1_05357_000000034_0001_23_39_H_._HHH_b2_08077_0001_0000100003_0000001_0_0001 (protein)
chain: SSSSSEELERYVKLSLRFARWLYEAGDPEAARFIVKAALDTARRENNEELVEELEELLRQLSSSS
B35: il10ra_site1_sap_15_mot_HHH_b1_05757_000000171_0001_42_57_H_._HHH_b2_01629_0001_0000100011_0000001_0_0001_af2pred_0001 (protein)
chain: SSSSSDEELREEVEELLEEAKKIDDPKEAAEVIFRALRLAWELGDPELVRLVAEVAKKLKSSSSS
B36: il10ra_site1_sap_23_mot_HHH_b1_06789_af2_000000041_0001_1_20_H_._HHH_b1_05884_0001_0000100017_0000002_0_0001 (protein)
chain: SSSSDEEHQEVYRLLKELIEAMAHGDEELVRELYEEVHELAERLGSRVLLHNIEFAFKRFGSSSS
B37: il10ra_site1_sap_14_mot_HHH_b1_06786_000000000_0001_1_20_H_._HHH_b2_03801_af2_0001_0000100003_0000001_0_0001 (protein)
chain: SSSSDEEVEEEVRELLEEAQRLAEEGNPEEAMKLLAEAVRVAFQGQDPEALRLVWRVVHELSSSS

Target: il10ra, Q13651
Experiment: yeast display titration

Apparent Kd, inactive:
B1 no binding seen, B2 no binding seen, B3 no binding seen, B4 > 1.12 µM, B5 no binding seen, B6 no binding seen, B7 no binding seen, B8 no binding seen, B9 no binding seen, B10 no binding seen, B11 no binding seen, B12 no binding seen, B13 no binding seen, B14 no binding seen, B15 no binding seen, B16 no binding seen, B17 no binding seen, B18 no binding seen, B19 no binding seen, B20 no binding seen, B21 no binding seen, B22 no binding seen, B23 no binding seen, B24 no binding seen, B25 no binding seen, B26 no binding seen, B27 no binding seen, B28 no binding seen, B29 no binding seen, B30 no binding seen, B31 no binding seen, B32 no binding seen, B33 no binding seen, B34 no binding seen, B35 no binding seen, B36 no binding seen, B37 no binding seen
